1 substance from PMC6675122, “N-terminal β-strand underpins biochemical specialization of an ATG8 isoform” (PLoS Biology, 2019) can be followed below.

By UniProt entry, the sequences of proteins in these tests, tags left out. Residues count along the entry.
UniProt M1C146, residues 5-114: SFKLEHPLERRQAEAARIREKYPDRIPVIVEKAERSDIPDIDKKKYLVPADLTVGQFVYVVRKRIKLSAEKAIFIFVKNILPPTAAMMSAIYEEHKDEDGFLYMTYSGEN
UniProt D0NBE6, residues 20-381: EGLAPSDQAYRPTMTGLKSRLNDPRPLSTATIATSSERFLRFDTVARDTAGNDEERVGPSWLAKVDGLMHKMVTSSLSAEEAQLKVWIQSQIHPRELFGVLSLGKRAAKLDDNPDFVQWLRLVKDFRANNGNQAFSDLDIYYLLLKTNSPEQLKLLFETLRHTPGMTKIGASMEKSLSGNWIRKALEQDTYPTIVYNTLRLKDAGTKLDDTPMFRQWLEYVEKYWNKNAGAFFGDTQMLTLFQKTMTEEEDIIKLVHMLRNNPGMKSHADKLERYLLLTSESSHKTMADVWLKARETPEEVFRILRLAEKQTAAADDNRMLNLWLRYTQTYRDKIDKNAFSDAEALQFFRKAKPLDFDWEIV

No constants are given. Whether binding was seen depends on the method and setting. Binding seen in cells or lysates may run through a third protein. Some binding calls cover weakened binding; strength is not graded here.

In the test the target is GFP:ATG8-2.2 (Solanum tuberosum (potato)) (UniProt M1C146). As to the kind of experiment: co-IP.

As for “RFP:PiPexRD54 (from UniProt D0NBE6 20-381)”, the binding result is “binds”.
